PubChem BioAssay AID720505 | Drosophila RNAi Screening Center | 2013
In all, the deposit lists about 20,000 reagents; shown is an unselected part of those with a known target gene and a result. Of all reagents, about 2,100 (10%) were called active. 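Raw plate signals without normalisation; calls rest on control-based scores that were not deposited; replicate 2 separates called from uncalled poorly.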 Reagents against one gene are numbered here. Reagent sequences are not shown. Not given: the amount of reagent, the time to read-out.

Screen: 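Knock-downs that reduce calcium influx once internal stores are emptied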 (primary screen)
Cell system: Drosophila S2R+ cells
Reagents: long dsRNA against Drosophila genes
Conditions: thapsigargin (2 µM) in calcium-free buffer to empty internal stores, then 2 mM calcium added back
Read-out: 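Stores emptied by 2 µM thapsigargin without calcium, then 2 mM calcium re-added; fluo-4 fluorescence followed by FLIPR in 384-well plates, per-well averaged endpoint, raw; two screen passes, some wells retested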
Scale: calcium signal and retest calcium signal: higher = more calcium entry after store depletion
Rule for the call: 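About 1500 genes called as lowering calcium entry, by varying amounts, judged against per-plate control wells with STIM1 as positive and Rho1 as negative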
Meaning of the calls: active = called as lowering calcium entry; inactive = not called

Knock-down of CG13319 came out at: calcium signal, replicate 1 = 136; calcium signal, replicate 2 = 123; inactive.
Against Vps29 the deposit lists calcium signal, replicate 1 = 95.3; calcium signal, replicate 2 = 184; inactive.
CG33158 #1 gave calcium signal, replicate 1 = 86.3; calcium signal, replicate 2 = 133; inactive.
CG33158 #2 scored calcium signal, replicate 1 = 114; calcium signal, replicate 2 = 128; inactive.
Against CG33158 #3, the entry reads calcium signal, replicate 1 = 81.8; calcium signal, replicate 2 = 166; inactive.
For CG31909 the deposit lists calcium signal, replicate 1 = 106; calcium signal, replicate 2 = 233; inactive.
Knock-down of CG11454 came out at: calcium signal, replicate 1 = 86.2; calcium signal, replicate 2 = 106; inactive.
Knock-down of Pfas came out at: calcium signal, replicate 1 = 113; calcium signal, replicate 2 = 145; inactive.
sgg showed calcium signal, replicate 1 = 89.3; calcium signal, replicate 2 = 141; inactive.
Knock-down of Tak1 #1 came out at: calcium signal, replicate 1 = 78.1; calcium signal, replicate 2 = 150; inactive.
Tak1 #2 gave calcium signal, replicate 1 = 127; calcium signal, replicate 2 = 108; inactive.
Depletion of Tak1 #3 resulted in: calcium signal, replicate 1 = 142; calcium signal, replicate 2 = 89.1; inactive.
Knock-down of slf gave: calcium signal, replicate 1 = 194; calcium signal, replicate 2 = 111; inactive.
Depletion of eIF3g2 resulted in: calcium signal, replicate 1 = 123; calcium signal, replicate 2 = 130; inactive.
Silencing of aqrs resulted in: calcium signal, replicate 1 = 169; calcium signal, replicate 2 = 178; inactive.
Atg3 #1 showed calcium signal, replicate 1 = 110; calcium signal, replicate 2 = 85.5; retest calcium signal, replicate 1 = 163; retest calcium signal, replicate 2 = 146; inactive.
Silencing of Atg3 #2 resulted in: calcium signal, replicate 1 = 157; calcium signal, replicate 2 = 112; inactive.

3 consecutive reagents already listed, for reference:
Pfas | calcium signal, replicate 1 = 113; calcium signal, replicate 2 = 145; call = inactive
sgg | calcium signal, replicate 1 = 89.3; calcium signal, replicate 2 = 141; call = inactive
Tak1 #1 | calcium signal, replicate 1 = 78.1; calcium signal, replicate 2 = 150; call = inactive

Next reagents:
For SCAP #1 the deposit lists calcium signal, replicate 1 = 163; calcium signal, replicate 2 = 228; inactive.
After knock-down of SCAP #2, the record shows calcium signal, replicate 1 = 144; calcium signal, replicate 2 = 204; inactive.
Sry-beta gave calcium signal, replicate 1 = 101; calcium signal, replicate 2 = 131; inactive.
Silencing of Nepl18 came out at: calcium signal, replicate 1 = 158; calcium signal, replicate 2 = 133; inactive.
After knock-down of CG2701 the results were calcium signal, replicate 1 = 117; calcium signal, replicate 2 = 127; inactive.
Tnks gave calcium signal, replicate 1 = 71.2; calcium signal, replicate 2 = 87.2; active.
Silencing of SkpC came out at: calcium signal, replicate 1 = 135; calcium signal, replicate 2 = 102; inactive.
For insv the deposit lists calcium signal, replicate 1 = 176; calcium signal, replicate 2 = 130; inactive.
With knock-down of Rb97D, the screen gave calcium signal, replicate 1 = 127; calcium signal, replicate 2 = 108; inactive.
Silencing of Sur came out at: calcium signal, replicate 1 = 124; calcium signal, replicate 2 = 148; inactive.
CG30479 scored calcium signal, replicate 1 = 154; calcium signal, replicate 2 = 192; inactive.
